Assay results: PubChem BioAssay AID463204 (Broad Institute, 2010)
Some of the results follow. Entries with a potency or affinity are not part of this list. The source made no clear call on entries shown without one.

assay: growth rescue of Mot1-301 ts yeast, confirmation, SUMOylation pathway inhibitor project, whole organism, S. cerevisiae, Mot1-301 ts mutant, luminescence, dose retest (AID 463204); conditions: S. cerevisiae Mot1-301 ts growth rescue, BacTiter-Glo ATP luminescence; at 42 µM (top of the series)

Compound	growth rescue activation [%]
COc1ccc2c(c1)OC[C@H]1[C@H]2N2C(=O)c3cc(Br)ccc3NC(=O)[C@@]2(C)[C@H]1c1ccccc1	100
C[C@@]12C(=O)Nc3ccc(Br)cc3C(=O)N1[C@H]1c3ccccc3OC[C@@H]1[C@@H]2c1ccccc1	23.4
O=C(Nc1ccc(Cl)cc1Cl)c1cccc(N2C(=O)C=CC2=O)c1	2.62
